The results in this text go back to patent EP0638588A1 (TAKEDA CHEMICAL INDUSTRIES, LTD., priority 1993, dated 1995).

* marks the point of attachment. Cbz = O=C(OCc1ccccc1)*; OtBu = CC(C)(C)O*

A short description of the first data set: general procedure: solution-phase peptide synthesis; WSC/HOBT; DIC/HONB; DEPC. Conditions: coupling step, sodium salts (compounds 15-18).
Turning to “(2R,6R)-2-(Boc-Gly-amino)-6,7-bis(PamO)-4-THT-Glu(O^tBu)-Gly-D-Glu(O^tBu)-O^tBu”, the step yield entry is reported as “yield 80%”.
On the same count and under the same terms, in the case of “(2R,6R)-2-(Boc-β-Ala-amino)-6,7-bis(PamO)-4-THT-Gly-Gly-Gly-Glu(O^tBu)-O^tBu” it was “yield 50%”; in that of “(2R,6R)-2-(Fmoc-Glu(O^tBu)-amino)-6,7-bis(PamO)-4-THT-Glu(O^tBu)-Gly-D-Glu(O^tBu)-O^tBu”, “yield 89%”.
For “(2R,6R)-2-Fmoc-amino-6,7-bis(PamO)-4-THT-Gly-Gly-Gly-Glu(O^tBu)-O^tBu”, the step yield result is reported as “yield 86%”.
The same measure, in the same setting: as for Cbz-GGGE(OtBu)-OtBu, the entry is “yield 55%”.

The same data set, now with this note: late stage modification step, sodium salts (compounds 15-18).
“(2R,6R)-2-(H-Glu(O^tBu)-amino)-6,7-bis(PamO)-4-THT-Glu(O^tBu)-Gly-D-Glu(O^tBu)-O^tBu”: the step yield result is “yield 76%”.
Same read-out and setting: as for “(2R,6R)-2-(H-Glu-amino)-6,7-bis(PamO)-4-THT-Glu-Gly-D-Glu-OH”, the entry is “yield 97%”.
Same read-out and setting: in the case of “(2R,6R)-2-(H-β-Ala-amino)-6,7-bis(PamO)-4-THT-Gly-Gly-Gly-Glu-OH” it was “yield 100%”.
Take “(2R,6R)-2-amino-6,7-bis(PamO)-4-THT-Gly-Gly-Gly-Glu(O^tBu)-O^tBu”: the step yield result is on record as “yield 94%”.
